Experimental data as given in the supplement of paper PMC10849652.
Some of the results follow.

Protein sequences, listed by entry. Tags and fused reporters are not part of them. Lines headed by an entry give the natural chain unless they say otherwise; changes in a name come on top.
UniProt Q9UKT4: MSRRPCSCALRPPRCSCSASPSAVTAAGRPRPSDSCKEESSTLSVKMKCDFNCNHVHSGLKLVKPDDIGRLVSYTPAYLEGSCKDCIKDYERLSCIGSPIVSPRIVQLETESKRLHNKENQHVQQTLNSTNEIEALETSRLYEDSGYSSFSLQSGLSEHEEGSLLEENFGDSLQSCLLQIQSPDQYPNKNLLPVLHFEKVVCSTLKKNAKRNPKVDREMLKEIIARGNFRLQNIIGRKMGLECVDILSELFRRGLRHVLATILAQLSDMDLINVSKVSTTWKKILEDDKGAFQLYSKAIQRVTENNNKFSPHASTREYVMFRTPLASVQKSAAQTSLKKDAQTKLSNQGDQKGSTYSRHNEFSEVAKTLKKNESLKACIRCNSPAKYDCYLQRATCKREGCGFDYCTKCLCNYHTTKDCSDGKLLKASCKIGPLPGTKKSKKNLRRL
UniProt Q9UK73, whole entry, looked up: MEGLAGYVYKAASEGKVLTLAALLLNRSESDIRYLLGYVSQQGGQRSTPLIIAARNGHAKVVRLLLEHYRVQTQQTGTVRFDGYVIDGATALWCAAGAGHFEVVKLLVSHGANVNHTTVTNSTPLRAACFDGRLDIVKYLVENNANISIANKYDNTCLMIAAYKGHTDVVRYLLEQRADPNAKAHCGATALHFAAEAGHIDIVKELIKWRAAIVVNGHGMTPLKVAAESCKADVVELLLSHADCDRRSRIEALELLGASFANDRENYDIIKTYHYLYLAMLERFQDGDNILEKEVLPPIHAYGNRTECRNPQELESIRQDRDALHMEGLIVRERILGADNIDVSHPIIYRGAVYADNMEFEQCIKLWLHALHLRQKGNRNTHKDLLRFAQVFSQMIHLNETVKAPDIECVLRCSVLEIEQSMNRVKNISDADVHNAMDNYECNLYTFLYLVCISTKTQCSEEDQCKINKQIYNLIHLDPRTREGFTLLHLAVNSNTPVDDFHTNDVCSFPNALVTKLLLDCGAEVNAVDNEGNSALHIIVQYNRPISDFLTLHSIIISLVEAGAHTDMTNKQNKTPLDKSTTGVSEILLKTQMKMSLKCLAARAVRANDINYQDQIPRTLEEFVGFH
UniProt Q9Y680: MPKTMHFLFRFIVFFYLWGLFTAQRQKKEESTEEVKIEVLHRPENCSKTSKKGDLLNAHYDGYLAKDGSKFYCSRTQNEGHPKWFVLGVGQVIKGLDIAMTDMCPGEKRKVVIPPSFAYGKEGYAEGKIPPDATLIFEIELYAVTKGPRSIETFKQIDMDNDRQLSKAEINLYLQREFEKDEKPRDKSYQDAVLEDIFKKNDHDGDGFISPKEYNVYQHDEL
UniProt Q5T1M5: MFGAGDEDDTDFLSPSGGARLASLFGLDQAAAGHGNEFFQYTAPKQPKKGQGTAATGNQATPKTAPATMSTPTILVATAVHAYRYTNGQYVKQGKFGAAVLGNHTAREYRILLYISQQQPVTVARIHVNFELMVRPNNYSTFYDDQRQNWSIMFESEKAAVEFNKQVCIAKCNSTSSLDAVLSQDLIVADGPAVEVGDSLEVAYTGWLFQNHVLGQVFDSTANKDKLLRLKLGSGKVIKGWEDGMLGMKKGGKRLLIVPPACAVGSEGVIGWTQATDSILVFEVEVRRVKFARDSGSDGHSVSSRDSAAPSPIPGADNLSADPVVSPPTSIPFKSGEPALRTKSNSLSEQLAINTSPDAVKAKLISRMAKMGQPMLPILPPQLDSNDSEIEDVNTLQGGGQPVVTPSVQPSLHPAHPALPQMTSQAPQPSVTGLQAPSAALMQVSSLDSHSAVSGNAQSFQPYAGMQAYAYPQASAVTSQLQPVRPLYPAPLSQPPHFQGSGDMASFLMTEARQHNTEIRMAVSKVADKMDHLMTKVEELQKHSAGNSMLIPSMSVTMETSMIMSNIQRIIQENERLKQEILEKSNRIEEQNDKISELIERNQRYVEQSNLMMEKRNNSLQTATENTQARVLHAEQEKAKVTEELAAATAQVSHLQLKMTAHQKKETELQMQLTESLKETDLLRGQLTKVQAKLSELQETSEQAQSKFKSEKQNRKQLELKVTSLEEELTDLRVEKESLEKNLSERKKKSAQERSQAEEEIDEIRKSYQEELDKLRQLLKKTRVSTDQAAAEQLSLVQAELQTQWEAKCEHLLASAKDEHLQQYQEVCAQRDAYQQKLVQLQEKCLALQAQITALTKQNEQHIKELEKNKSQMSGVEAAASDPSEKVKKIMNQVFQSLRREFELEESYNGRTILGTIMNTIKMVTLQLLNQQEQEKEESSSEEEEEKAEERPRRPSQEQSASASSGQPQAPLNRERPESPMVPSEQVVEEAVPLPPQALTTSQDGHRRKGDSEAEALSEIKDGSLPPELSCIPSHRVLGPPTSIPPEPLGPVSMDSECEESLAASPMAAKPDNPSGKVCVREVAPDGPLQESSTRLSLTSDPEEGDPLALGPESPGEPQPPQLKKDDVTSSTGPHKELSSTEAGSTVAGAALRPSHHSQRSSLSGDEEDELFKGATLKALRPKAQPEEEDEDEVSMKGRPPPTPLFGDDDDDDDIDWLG
UniProt Q00688: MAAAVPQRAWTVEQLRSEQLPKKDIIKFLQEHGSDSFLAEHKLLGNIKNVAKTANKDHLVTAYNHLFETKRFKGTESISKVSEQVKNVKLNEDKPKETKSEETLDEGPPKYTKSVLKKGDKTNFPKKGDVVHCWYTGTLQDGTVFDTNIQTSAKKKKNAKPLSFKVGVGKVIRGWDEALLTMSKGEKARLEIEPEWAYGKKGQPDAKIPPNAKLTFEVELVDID
UniProt P37268: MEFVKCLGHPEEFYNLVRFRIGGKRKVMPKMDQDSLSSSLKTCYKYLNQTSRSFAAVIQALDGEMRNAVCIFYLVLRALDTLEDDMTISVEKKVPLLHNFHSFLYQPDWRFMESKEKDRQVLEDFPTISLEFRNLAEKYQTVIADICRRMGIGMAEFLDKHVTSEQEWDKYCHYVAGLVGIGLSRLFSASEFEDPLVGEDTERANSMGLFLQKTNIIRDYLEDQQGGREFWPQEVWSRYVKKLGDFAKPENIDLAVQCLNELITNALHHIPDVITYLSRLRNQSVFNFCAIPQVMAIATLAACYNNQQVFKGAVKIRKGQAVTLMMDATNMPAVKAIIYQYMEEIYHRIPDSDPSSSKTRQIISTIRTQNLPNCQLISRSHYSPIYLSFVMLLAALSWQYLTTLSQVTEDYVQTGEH
UniProt O95363: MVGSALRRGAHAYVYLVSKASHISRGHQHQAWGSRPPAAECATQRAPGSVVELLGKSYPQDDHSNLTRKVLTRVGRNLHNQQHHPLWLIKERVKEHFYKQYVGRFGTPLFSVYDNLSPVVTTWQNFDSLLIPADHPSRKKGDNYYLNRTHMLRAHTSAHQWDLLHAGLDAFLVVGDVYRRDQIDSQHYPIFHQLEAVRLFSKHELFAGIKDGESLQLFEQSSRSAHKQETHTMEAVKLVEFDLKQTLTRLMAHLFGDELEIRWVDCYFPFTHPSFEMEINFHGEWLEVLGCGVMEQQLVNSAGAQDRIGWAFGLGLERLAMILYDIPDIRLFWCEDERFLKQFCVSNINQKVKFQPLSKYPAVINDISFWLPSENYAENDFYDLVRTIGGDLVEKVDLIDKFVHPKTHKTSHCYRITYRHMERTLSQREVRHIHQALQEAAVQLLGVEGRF
UniProt Q8TB52: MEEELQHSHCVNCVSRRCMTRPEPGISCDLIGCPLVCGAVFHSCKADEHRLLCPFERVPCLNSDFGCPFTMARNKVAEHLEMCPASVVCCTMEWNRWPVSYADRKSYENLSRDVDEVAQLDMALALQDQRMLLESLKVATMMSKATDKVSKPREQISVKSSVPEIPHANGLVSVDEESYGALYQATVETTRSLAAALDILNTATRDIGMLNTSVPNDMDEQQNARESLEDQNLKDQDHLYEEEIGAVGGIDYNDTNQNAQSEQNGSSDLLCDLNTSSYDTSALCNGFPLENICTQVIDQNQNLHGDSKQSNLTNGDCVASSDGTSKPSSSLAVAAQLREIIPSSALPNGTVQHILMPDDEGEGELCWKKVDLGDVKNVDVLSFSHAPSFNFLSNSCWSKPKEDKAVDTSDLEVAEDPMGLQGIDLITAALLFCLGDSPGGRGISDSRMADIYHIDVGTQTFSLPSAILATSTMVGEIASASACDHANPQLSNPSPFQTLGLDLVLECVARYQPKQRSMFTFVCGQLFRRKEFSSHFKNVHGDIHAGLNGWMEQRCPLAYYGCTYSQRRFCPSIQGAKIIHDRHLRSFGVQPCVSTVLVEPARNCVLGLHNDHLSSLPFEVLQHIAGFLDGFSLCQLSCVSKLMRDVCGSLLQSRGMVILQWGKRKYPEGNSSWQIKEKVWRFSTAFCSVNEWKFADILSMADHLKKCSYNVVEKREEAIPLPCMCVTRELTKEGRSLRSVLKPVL
UniProt Q14192: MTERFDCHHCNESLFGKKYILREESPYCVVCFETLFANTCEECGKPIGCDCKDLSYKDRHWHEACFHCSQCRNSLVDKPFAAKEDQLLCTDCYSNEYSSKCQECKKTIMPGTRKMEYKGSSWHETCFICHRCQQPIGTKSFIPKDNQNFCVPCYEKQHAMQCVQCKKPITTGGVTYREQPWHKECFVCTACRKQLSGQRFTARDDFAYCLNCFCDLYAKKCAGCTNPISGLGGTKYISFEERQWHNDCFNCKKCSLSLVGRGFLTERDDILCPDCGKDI
UniProt P22830: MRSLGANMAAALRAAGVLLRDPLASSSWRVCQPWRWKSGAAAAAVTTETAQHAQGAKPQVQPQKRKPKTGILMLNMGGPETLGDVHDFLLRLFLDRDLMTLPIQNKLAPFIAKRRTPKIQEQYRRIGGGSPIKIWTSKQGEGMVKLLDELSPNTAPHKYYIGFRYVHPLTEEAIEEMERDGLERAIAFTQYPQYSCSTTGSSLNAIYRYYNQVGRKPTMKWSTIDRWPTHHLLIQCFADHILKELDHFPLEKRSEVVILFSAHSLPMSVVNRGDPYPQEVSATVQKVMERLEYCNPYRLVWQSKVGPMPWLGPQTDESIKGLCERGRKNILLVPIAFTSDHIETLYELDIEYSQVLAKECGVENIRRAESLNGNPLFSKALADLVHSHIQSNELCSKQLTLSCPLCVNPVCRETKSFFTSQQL
UniProt Q14320: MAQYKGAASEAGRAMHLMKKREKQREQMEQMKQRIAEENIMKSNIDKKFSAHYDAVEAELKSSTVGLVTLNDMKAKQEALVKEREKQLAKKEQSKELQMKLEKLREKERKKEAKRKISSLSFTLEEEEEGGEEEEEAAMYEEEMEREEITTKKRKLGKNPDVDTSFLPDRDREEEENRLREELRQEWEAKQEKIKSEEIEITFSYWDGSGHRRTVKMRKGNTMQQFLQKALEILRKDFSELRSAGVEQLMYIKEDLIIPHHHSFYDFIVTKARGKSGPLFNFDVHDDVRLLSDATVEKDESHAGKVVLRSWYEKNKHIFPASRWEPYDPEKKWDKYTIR
UniProt O95684: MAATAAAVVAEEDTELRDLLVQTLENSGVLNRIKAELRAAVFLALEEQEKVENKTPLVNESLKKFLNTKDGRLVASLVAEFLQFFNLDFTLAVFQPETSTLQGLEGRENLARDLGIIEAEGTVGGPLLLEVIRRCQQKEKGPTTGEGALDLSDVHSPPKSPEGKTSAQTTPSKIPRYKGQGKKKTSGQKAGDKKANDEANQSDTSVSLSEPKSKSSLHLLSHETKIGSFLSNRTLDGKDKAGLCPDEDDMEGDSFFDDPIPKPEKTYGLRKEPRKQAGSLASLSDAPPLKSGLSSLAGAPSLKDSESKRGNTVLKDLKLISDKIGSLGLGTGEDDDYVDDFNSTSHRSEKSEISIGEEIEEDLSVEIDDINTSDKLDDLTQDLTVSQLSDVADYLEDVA
UniProt Q9NWM8: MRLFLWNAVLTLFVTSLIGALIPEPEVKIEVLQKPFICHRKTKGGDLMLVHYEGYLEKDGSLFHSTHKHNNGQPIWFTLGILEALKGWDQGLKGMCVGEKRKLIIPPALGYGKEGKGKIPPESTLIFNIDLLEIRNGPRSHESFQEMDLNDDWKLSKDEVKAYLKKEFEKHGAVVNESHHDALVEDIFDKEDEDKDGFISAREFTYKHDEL
UniProt Q9NRD1: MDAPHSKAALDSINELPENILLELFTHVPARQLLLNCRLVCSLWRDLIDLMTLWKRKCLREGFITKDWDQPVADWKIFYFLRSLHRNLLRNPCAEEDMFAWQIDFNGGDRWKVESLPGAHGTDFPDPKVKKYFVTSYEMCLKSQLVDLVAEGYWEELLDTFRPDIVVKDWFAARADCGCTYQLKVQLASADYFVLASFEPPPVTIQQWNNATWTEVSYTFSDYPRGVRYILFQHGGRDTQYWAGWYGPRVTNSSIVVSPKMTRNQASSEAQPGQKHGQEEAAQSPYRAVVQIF
UniProt Q9Y421: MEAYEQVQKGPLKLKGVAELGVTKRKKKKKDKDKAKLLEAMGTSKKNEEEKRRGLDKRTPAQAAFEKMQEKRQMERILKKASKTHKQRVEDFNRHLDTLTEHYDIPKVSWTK
UniProt Q9Y3D6: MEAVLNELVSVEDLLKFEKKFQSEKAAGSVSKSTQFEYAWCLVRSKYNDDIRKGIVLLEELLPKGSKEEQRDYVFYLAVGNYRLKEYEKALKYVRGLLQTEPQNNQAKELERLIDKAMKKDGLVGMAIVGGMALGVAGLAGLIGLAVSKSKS

These targets were tested with Cc1ccc(NC(=O)c2ccc(CN3CC[C@H](N(C)C)C3)c(C(F)(F)F)c2)cc1Nc1nccc(-c2cncnc2)n1 [bafetinib] (assay: log2 fold change, soluble protein after heating vs DMSO (PISA); higher = thermal stabilisation; K562 cells, 10 uM, 30 min; active = over 0.2 and 3.5 SD of the protein, either way, in both replicates (recomputed)).
Outline: (§1)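 K562 cells (2×10^6 cells/mL) were treated with 10 μM compound for 30 min, and aliquots were heated for 3 min over 48°C-58°C. Pooled aliquots were extracted in PBS with 0.5% NP-40 at 4°C, and the supernatant after 21,000xg for 90 min was measured by TMTpro 16plex LC-MS/MS with channel sums equalised. Reported thermal stability, relative to control samples and from duplicates, is a log2 fold change.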

Row | Target | log2 fold change
1 | FBXO5 (UniProt Q9UKT4) | inactive: 0.041
2 | FEM1B (UniProt Q9UK73) | inactive: -0.076
3 | FKBP7 (UniProt Q9Y680) | inactive: 0
4 | FAM76B (UniProt Q5HYJ3) | inactive: -0.026
5 | FIP1L1 (UniProt Q6UN15) | inactive: -0.027
6 | FBXO22 (UniProt Q8NEZ5) | inactive: -0.008
7 | FAM91A1 (UniProt Q658Y4) | inactive: -0.01
8 | FKBP15 (UniProt Q5T1M5) | inactive: -0.02
9 | FKBP3 (UniProt Q00688) | inactive: 0.014
10 | FBXO7 (UniProt Q9Y3I1) | inactive: -0.026
11 | FDX2 (UniProt Q6P4F2) | inactive: -0.028
12 | FDFT1 (UniProt P37268) | inactive: 0.01
13 | FBXL20 (UniProt Q96IG2) | inactive: 0.038
14 | FKBPL (UniProt Q9UIM3) | inactive: -0.04
15 | FARS2 (UniProt O95363) | inactive: -0.058
16 | FBXO30 (UniProt Q8TB52) | inactive: -0.06
17 | FHL2 (UniProt Q14192) | inactive: -0.052
18 | FECH isoform 2 (UniProt P22830) | inactive: 0.315
19 | FAM50A (UniProt Q14320) | inactive: -0.035
20 | FBL (UniProt P22087) | inactive: 0.29

Row | Target | log2 fold change
21 | FBLL1 (UniProt A6NHQ2) | inactive: 0.298
22 | FBXO3 (UniProt Q9UK99) | inactive: -0.052
23 | FN3KRP (UniProt Q9HA64) | inactive: -0.021
24 | FLVCR1 (UniProt Q9Y5Y0) | inactive: 0.032
25 | FAM8A1 (UniProt Q9UBU6) | inactive: -0.038
26 | FGFR1OP (UniProt O95684) | inactive: 0.007
27 | FKBP14 (UniProt Q9NWM8) | inactive: -0.021
28 | FGF13 isoform 3 (UniProt Q92913) | inactive: -0.076
29 | FBXO6 (UniProt Q9NRD1) | active: 0.442
30 | FKBP2 (UniProt P26885) | inactive: -0.088
31 | FAM32A (UniProt Q9Y421) | inactive: 0.07
32 | FDPS (UniProt P14324) | inactive: 0.057
33 | FNBP4 isoform 2 (UniProt Q8N3X1) | inactive: -0.048
34 | FAM98B (UniProt Q52LJ0) | inactive: 0.139
35 | FARSB (UniProt Q9NSD9) | inactive: -0.009
36 | FAM98A (UniProt Q8NCA5) | inactive: 0.114
37 | FAU (UniProt P62861) | inactive: 0.352
38 | FIS1 (UniProt Q9Y3D6) | inactive: -0.087
39 | FAM3C (UniProt Q92520) | inactive: -0.056

Each target was assayed with Cc1cccc(CC(=O)N2CCc3c2ccc(-c2cn(C)c4ncnc(N)c24)c3F)n1 in the same assay as above.
Outline: as §1

Row | Target | log2 fold change
40 | FBXO5 (UniProt Q9UKT4) | inactive: 0.006
41 | FEM1B (UniProt Q9UK73) | inactive: -0.058
42 | FKBP7 (UniProt Q9Y680) | inactive: -0.04
43 | FAM76B (UniProt Q5HYJ3) | inactive: 0.185
44 | FIP1L1 (UniProt Q6UN15) | inactive: -0.022
45 | FBXO22 (UniProt Q8NEZ5) | inactive: 0.091
46 | FAM91A1 (UniProt Q658Y4) | inactive: 0.07
47 | FKBP15 (UniProt Q5T1M5) | inactive: 0.083
48 | FKBP3 (UniProt Q00688) | inactive: -0.03
49 | FBXO7 (UniProt Q9Y3I1) | inactive: -0.006
50 | FDX2 (UniProt Q6P4F2) | inactive: -0.033
51 | FDFT1 (UniProt P37268) | inactive: 0.016
52 | FBXL20 (UniProt Q96IG2) | inactive: 0.085
53 | FKBPL (UniProt Q9UIM3) | inactive: -0.041
54 | FARS2 (UniProt O95363) | inactive: 0.064
55 | FBXO30 (UniProt Q8TB52) | inactive: 0.084
56 | FHL2 (UniProt Q14192) | inactive: -0.081
57 | FECH isoform 2 (UniProt P22830) | inactive: -0.125
58 | FAM50A (UniProt Q14320) | inactive: -0.045
59 | FBL (UniProt P22087) | inactive: -0.039

Row | Target | log2 fold change
60 | FBLL1 (UniProt A6NHQ2) | inactive: 0.043
61 | FBXO3 (UniProt Q9UK99) | inactive: 0.06
62 | FN3KRP (UniProt Q9HA64) | inactive: 0.008
63 | FLVCR1 (UniProt Q9Y5Y0) | inactive: -0.153
64 | FAM8A1 (UniProt Q9UBU6) | inactive: 0.087
65 | FGFR1OP (UniProt O95684) | inactive: 0.004
66 | FKBP14 (UniProt Q9NWM8) | inactive: 0.005
67 | FGF13 isoform 3 (UniProt Q92913) | inactive: -0.039
68 | FBXO6 (UniProt Q9NRD1) | inactive: 0.015
69 | FKBP2 (UniProt P26885) | inactive: -0.023
70 | FAM32A (UniProt Q9Y421) | inactive: -0.054
71 | FDPS (UniProt P14324) | inactive: 0.204
72 | FNBP4 isoform 2 (UniProt Q8N3X1) | inactive: -0.035
73 | FAM98B (UniProt Q52LJ0) | inactive: 0.064
74 | FARSB (UniProt Q9NSD9) | inactive: 0.007
75 | FAM98A (UniProt Q8NCA5) | inactive: 0.039
76 | FAU (UniProt P62861) | inactive: -0.042
77 | FIS1 (UniProt Q9Y3D6) | inactive: -0.034
78 | FAM3C (UniProt Q92520) | inactive: -0.024
